Common to all, as to settings: yeast three-hybrid, YBZ-1, SC-Leu-His + 0.5 mM 3-AT, 4 days
In test [1] the target is T1, PUM1 PUF domain R5-DKR C1007D + R1008K + Q1011R (UniProt Q14671).
T1 sequence: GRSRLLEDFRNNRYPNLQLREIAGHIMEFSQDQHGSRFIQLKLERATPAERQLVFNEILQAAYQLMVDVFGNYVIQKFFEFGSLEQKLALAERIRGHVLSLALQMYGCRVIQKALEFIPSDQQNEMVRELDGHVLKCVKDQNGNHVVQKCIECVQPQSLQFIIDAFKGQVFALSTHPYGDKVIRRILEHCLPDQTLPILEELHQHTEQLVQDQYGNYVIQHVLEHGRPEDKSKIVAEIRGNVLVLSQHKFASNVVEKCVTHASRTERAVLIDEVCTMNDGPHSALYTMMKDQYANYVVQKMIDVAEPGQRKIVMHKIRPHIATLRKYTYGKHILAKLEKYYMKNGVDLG

Test [2] has as its target T2, PUM1 PUF domain R5-DRD C1007D + Q1011D (UniProt Q14671).
T2 sequence: T1 sequence with K181R, R184D

In test [3] the target is T3, PUM1 PUF domain R5-FNG C1007F + R1008N + Q1011G (UniProt Q14671).
T3 sequence: T1 sequence with D180F, K181N, R184G

The target in test [4] is T4, PUM1 PUF domain R5-GVD C1007G + R1008V + Q1011D (UniProt Q14671).
T4 sequence: T1 sequence with D180G, K181V, R184D

Test [5] concerns the target T5, PUM1 PUF domain R5-KAV C1007K + R1008A + Q1011V (UniProt Q14671).
T5 sequence: T1 sequence with D180K, K181A, R184V

The target in test [6] is T6, PUM1 PUF domain R5-KLC C1007K + R1008L + Q1011C (UniProt Q14671).
T6 sequence: T1 sequence with D180K, K181L, R184C

Test [7] addresses T7, PUM1 PUF domain R5-KPI C1007K + R1008P + Q1011I (UniProt Q14671).
T7 sequence: T1 sequence with D180K, K181P, R184I

Test [8] addresses T8, PUM1 PUF domain R5-KSW C1007K + R1008S + Q1011W (UniProt Q14671).
T8 sequence: T1 sequence with D180K, K181S, R184W

The target of test [9] is T9, PUM1 PUF domain R5-LKL C1007L + R1008K + Q1011L (UniProt Q14671).
T9 sequence: T1 sequence with D180L, R184L

Test [10] deals with T10, PUM1 PUF domain R5-NDI C1007N + R1008D + Q1011I (UniProt Q14671).
T10 sequence: T1 sequence with D180N, K181D, R184I

Test [11] deals with T11, PUM1 PUF domain R5-NTR C1007N + R1008T + Q1011R (UniProt Q14671).
T11 sequence: T1 sequence with D180N, K181T

Test [12] concerns the target T12, PUM1 PUF domain R5-RAA C1007R + R1008A + Q1011A (UniProt Q14671).
T12 sequence: T1 sequence with D180R, K181A, R184A

In test [13] the target is T13, PUM1 PUF domain R5-RAD C1007R + R1008A + Q1011D (UniProt Q14671).
T13 sequence: T1 sequence with D180R, K181A, R184D

The target of test [14] is T14, PUM1 PUF domain R5-RCV C1007R + R1008C + Q1011V (UniProt Q14671).
T14 sequence: T1 sequence with D180R, K181C, R184V

The target in test [15] is T15, PUM1 PUF domain R5-RDG C1007R + R1008D + Q1011G (UniProt Q14671).
T15 sequence: T1 sequence with D180R, K181D, R184G

The target of test [16] is T16, PUM1 PUF domain R5-RGA C1007R + R1008G + Q1011A (UniProt Q14671).
T16 sequence: T1 sequence with D180R, K181G, R184A

Test [17] has as its target T17, PUM1 PUF domain R5-RMV C1007R + R1008M + Q1011V (UniProt Q14671).
T17 sequence: T1 sequence with D180R, K181M, R184V

The target in test [18] is T18, PUM1 PUF domain R5-RPM C1007R + R1008P + Q1011M (UniProt Q14671).
T18 sequence: T1 sequence with D180R, K181P, R184M

Test [19] has as its target T19, PUM1 PUF domain R5-RTL C1007R + R1008T + Q1011L (UniProt Q14671).
T19 sequence: T1 sequence with D180R, K181T, R184L

The target of test [20] is T20, PUM1 PUF domain R5-SGT C1007S + R1008G + Q1011T (UniProt Q14671).
T20 sequence: T1 sequence with D180S, K181G, R184T

Positions count from the first letter of the chain named. This is one part of the list. At the low end of the ranking the order means little. A value given as a limit tells only on which side of the number the result lay.

On to “GGCUAGAACUAGUGGAUCCCCCGGCGCCCGGCGGCUCGAGCCCGGGUAAGUGUAAAUAGUCUGCAUGCCGCCGGGCGCCAUGCCUGCAGGUCGACUCUAGAAAACAUG”, for which the binding signal (log2 enrichment (interaction score)) was -4.45 in test [1]; -3.33 in [2]; -4.52 in test [3]; -3.33 in test [4]; less than -6.62 in test [5]; -3.47 in [6]. For the same sequence, the binding signal (log2 enrichment (interaction score)) is -3.94 in test [7]; -4.41 in [8]; -3.56 in test [9]; less than -5.57 in test [10]; -4.16 in [11]; -3.55 in test [12]. The binding signal (log2 enrichment (interaction score)) in [13] was -3.62; in [14], -4.38; in [15], -7.06; in [16], -3.63; in test [17], -4.27; in [18], less than -7.18. Further, the binding signal (log2 enrichment (interaction score)) in test [19] is -4.46; in [20] it was -3.41.

The record behind these values is paper PMC8384837.
